According to publication PMC9385627:
No constants are given. Whether binding was seen depends on the method and setting. In cells and extracts the contact can be indirect. Some binding calls cover weakened binding; strength is not graded here.

Amino acid sequences for entries named in this document (tags omitted).
UniProt Q03267: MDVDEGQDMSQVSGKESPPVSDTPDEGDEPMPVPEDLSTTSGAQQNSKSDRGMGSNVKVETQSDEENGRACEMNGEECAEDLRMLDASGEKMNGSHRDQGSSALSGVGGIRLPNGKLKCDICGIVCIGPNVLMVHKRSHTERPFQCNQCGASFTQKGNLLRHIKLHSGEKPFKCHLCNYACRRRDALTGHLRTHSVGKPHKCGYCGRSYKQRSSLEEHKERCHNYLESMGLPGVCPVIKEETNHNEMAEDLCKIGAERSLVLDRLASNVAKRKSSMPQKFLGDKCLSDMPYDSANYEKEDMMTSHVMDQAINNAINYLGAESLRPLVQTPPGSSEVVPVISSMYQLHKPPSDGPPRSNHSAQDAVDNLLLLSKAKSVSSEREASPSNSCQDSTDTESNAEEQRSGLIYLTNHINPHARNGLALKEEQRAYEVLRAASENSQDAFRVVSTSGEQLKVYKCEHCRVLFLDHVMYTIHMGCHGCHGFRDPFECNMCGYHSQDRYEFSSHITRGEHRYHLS
UniProt O09106: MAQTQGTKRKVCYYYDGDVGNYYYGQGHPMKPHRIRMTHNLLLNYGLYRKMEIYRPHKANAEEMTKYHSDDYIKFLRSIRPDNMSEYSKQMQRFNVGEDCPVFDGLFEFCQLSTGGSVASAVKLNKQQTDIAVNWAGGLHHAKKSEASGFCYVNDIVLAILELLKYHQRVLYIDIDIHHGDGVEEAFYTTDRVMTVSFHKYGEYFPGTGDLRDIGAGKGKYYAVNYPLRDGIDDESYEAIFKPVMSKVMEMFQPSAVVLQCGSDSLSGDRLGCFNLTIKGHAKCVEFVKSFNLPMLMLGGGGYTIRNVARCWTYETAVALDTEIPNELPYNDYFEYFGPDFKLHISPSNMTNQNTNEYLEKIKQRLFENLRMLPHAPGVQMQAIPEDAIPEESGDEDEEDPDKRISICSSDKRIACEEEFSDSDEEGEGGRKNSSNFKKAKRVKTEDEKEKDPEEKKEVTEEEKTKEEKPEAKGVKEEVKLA

What was measured:
[1] = molecular target: IKZF1, overexpressed in 293T cells (mouse) (UniProt Q03267); assay: co-IP; 293T cells transfected with oe-NC, oe-HDAC1, oe-IKZF1 or both for 48 h; lysate incubated with anti-IKZF1 antibody or IgG overnight at 4 °C, protein A/G-sepharose; blot for HDAC1 and IKZF1
[2] = molecular target: IKZF1, endogenous in RAW 264.7 cells (mouse (endogenous in RAW 264.7)) (UniProt Q03267); assay: co-IP; RAW 264.7 cells, groups control, LPS, LPS + PU, LPS + oe-NC, LPS + oe-HDAC1; lysate incubated with anti-IKZF1 antibody or IgG, protein A/G-sepharose; blot for HDAC1 and IKZF1

Row | binding [1] | binding [2] | Substance
1 | binds |  | histone deacetylase 1 (HDAC1), overexpressed in 293T cells (from UniProt O09106 1-482)
2 |  | binds | histone deacetylase 1 (HDAC1), overexpressed in RAW 264.7 cells (from UniProt O09106 1-482)
3 |  | binds | histone deacetylase 1 (HDAC1), endogenous in RAW 264.7 cells (from UniProt O09106 1-482)
